Data on one compound can be found in patent publication US20060094674A1, “Combination of mtor inhibitor and a tyrosine kinase inhibitor for the treatment of neoplasms” (priority 2002, published 2006).

This test relates to Ba/F-FLT3-ITD cells. The test is described as follows: [3H]-thymidine proliferation assay, PKC412-sensitive Ba/F-FLT3-ITD cells. Type of test: cell-based. The settings on record: PKC412 at indicated concentrations; 48 hours.

SMILES strings stand for the structures.

In the case of `CO[C@@H]1[C@H](N(C)C(=O)c2ccccc2)C[C@H]2O[C@]1(C)n1c3ccccc3c3c4c(c5c6ccccc6n2c5c31)C(=O)NC4` [PKC412], the inhibition of proliferation entry is recorded as “inhibited the proliferation of Ba/F-FLT3-ITD cells in a dose-dependent manner”.
